In the assay the test system is P388 leukemia ip, CD2F1 mice, survival T/C. As to the kind of experiment: NCI In Vivo Anticancer Drug Screen. Data for tumor model P388 Leukemia (intraperitoneal) in CD2F1 (CDF1) mice. Particulars: T/C endpoint: median survival time, higher T/C = longer survival.
The mark [1] stands for this setting: dose: 50.0 mg/kg/injection, schedule: Q01DX009 (ip), vehicle: Klucel (hydroxypropylcellulose) (HPC).
The mark [2] stands for this setting: dose: 100.0 mg/kg/injection, schedule: Q01DX009 (ip), vehicle: Klucel (hydroxypropylcellulose) (HPC).
Setting [3] is: dose: 200.0 mg/kg/injection, schedule: Q01DX005 (ip), vehicle: saline with Tween-80.
The mark [4] stands for this setting: dose: 12.5 mg/kg/injection, schedule: Q01DX005 (ip), vehicle: saline with Tween-80.
Setting [5] is: dose: 25.0 mg/kg/injection, schedule: Q01DX005 (ip), vehicle: saline with Tween-80.
Where [6] appears, read: dose: 50.0 mg/kg/injection, schedule: Q01DX005 (ip), vehicle: saline with Tween-80.
Where [7] appears, read: dose: 100.0 mg/kg/injection, schedule: Q01DX005 (ip), vehicle: saline with Tween-80.
The mark [8] stands for this setting: dose: 50.0 mg/kg/injection, schedule: Q01DX009 (ip), vehicle: other.
[9] abbreviates: dose: 400.0 mg/kg/injection, schedule: Q04DX003 (ip), vehicle: saline with Tween-80.
The mark [10] stands for this setting: dose: 200.0 mg/kg/injection, schedule: Q01DX009 (ip), vehicle: other.
[11] abbreviates: dose: 240.0 mg/kg/injection, schedule: Q01DX005 (ip), vehicle: saline with Tween-80.

The list does not hold the whole screen: it gathers tests that were run many times, whatever their T/C, doses with no T/C, and many T/C values between a quarter and a half above the control. Further doses and runs are listed elsewhere. T/C is the treated group as % of the vehicle group. Some entries give survivors of the animals treated and no T/C: the source holds a T/C of zero for them, seemingly a mark for toxic or unscored doses. Some doses without a T/C left all or most animals alive at the check, yet need not have been tolerated: survival well below the control is almost never listed, so the zero probably covers shortened survival too. Counts of survivors are from the toxicity check (mostly the fifth day) where no day follows; animals may have died later. Schedules are NCI's codes, taken here to give the interval after Q, in days (D) or hours (H), and the number of doses after X. Where survival is the endpoint, this PubChem deposit counts one and a half times the control or more as active, and values a quarter to a half above the control carry no call in these data; other NCI protocols may use other cut-offs.

For `N#CC1(N2CCCCC2)CCCCC1`, the survivor count runs as follows: (dose: 12.5 mg/kg/injection, schedule: Q01DX009 (ip), vehicle: Klucel (hydroxypropylcellulose) (HPC)) 0 of 6; (dose: 25.0 mg/kg/injection, schedule: Q01DX009 (ip), vehicle: Klucel (hydroxypropylcellulose) (HPC)) 0 of 6; under setting [1], 0 of 6; under setting [2], 0 of 6.

As to `COc1cccc2c1C(=O)c1c(O)c3c(c(O)c1C2=O)C[C@@](O)(CO)C[C@@H]3OC1CC(N)C(O)C(C)O1` (some centres undefined), the T/C is, setting by setting: (dose: 0.2 mg/kg/injection, schedule: Q01DX009 (ip), vehicle: water) 135 % of control; (dose: 0.39 mg/kg/injection, schedule: Q01DX009 (ip), vehicle: water) 137 % of control; (dose: 9.0 mg/kg/injection, schedule: Q04DX003 (ip), vehicle: water) 143 % of control. For the same compound, the survivor count by setting is: (dose: 6.25 mg/kg/injection, schedule: Q01DX009 (ip), vehicle: water) 6 of 6; (dose: 12.5 mg/kg/injection, schedule: Q01DX009 (ip), vehicle: water) 3 of 6; (dose: 25.0 mg/kg/injection, schedule: Q01DX009 (ip), vehicle: water) 0 of 6.

Regarding `Cc1[nH]c(N)nc(=S)c1CCCNc1ccc(C(=O)NC(CCC(=O)O)C(=O)O)cc1` (centres undefined), the survivor count was 2 of 6 (dose: 50.0 mg/kg/injection, schedule: Q01DX005 (ip), vehicle: Klucel (hydroxypropylcellulose) (HPC)); 0 of 6 (dose: 100.0 mg/kg/injection, schedule: Q01DX005 (ip), vehicle: Klucel (hydroxypropylcellulose) (HPC)); 0 of 6 (dose: 200.0 mg/kg/injection, schedule: Q01DX005 (ip), vehicle: Klucel (hydroxypropylcellulose) (HPC)).

Turning to `O=C(NCCCl)Nc1ccn(C(=O)NCCCl)c(=O)n1`, the survivor count under setting [3] is on record as 2 of 6.

In the case of `N#CNC(=NC12CC3CC(CC(C3)C1)C2)Nc1ccncc1`, the survivor count (dose: 200.0 mg/kg/injection, schedule: Q04DX002 (ip), vehicle: saline with Tween-80) is listed as 6 of 6.

Take `COC1=C(OC)C(=O)C([Si](C)(C)C)=C(CO)C1=O`: the survivor count reads like this: (dose: 30.0 mg/kg/injection, schedule: Q01DX005 (ip), vehicle: saline with Tween-80) 1 of 6; (dose: 60.0 mg/kg/injection, schedule: Q01DX005 (ip), vehicle: Klucel (hydroxypropylcellulose) (HPC)) 0 of 6; (dose: 120.0 mg/kg/injection, schedule: Q01DX005 (ip), vehicle: Klucel (hydroxypropylcellulose) (HPC)) 0 of 6; (dose: 240.0 mg/kg/injection, schedule: Q01DX005 (ip), vehicle: Klucel (hydroxypropylcellulose) (HPC)) 0 of 6.

As for `C[n+]1c2ccccc2cc2ccccc21`, the survivor count is, setting by setting: (dose: 50.0 mg/kg/injection, schedule: Q04DX003 (ip), vehicle: saline with Tween-80) 1 of 6; (dose: 100.0 mg/kg/injection, schedule: Q04DX003 (ip), vehicle: saline with Tween-80) 0 of 6.

For `OC1(c2ccc(CCc3ccc(C4(O)C(c5ccccc5)=C(c5ccccc5)C(c5ccccc5)=C4c4ccccc4)cc3)cc2)C(c2ccccc2)=C(c2ccccc2)C(c2ccccc2)=C1c1ccccc1`, the survivor count by setting is: (dose: 100.0 mg/kg/injection, schedule: Q01DX001 (ip), vehicle: Klucel (hydroxypropylcellulose) (HPC)) 6 of 6; (dose: 400.0 mg/kg/injection, schedule: Q01DX001 (ip), vehicle: Klucel (hydroxypropylcellulose) (HPC)) 6 of 6.

On to `Cc1cc(=NC(C)(C)C)nc2c3ccccc3c(Cl)cn12`, for which the survivor count was 0 of 6 under setting [4]; 0 of 6 under setting [5]; 0 of 6 under setting [6]; 0 of 6 under setting [7]; 0 of 6 under setting [3].

Turning to `Cc1ccc(S(=O)(=O)n2cccn2)cc1`, the survivor count by setting is: (dose: 12.5 mg/kg/injection, schedule: Q01DX009 (ip), vehicle: other) 6 of 6; under setting [8], 6 of 6.

For `CC(NNC(=S)NCc1ccccc1)c1cc2ccccc2cn1` (centres undefined), the T/C under setting [7] was 131 % of control and the T/C under setting [3] was 135 % of control. The survivor count (dose: 400.0 mg/kg/injection, schedule: Q01DX005 (ip), vehicle: saline with Tween-80) is given as 1 of 6.

For `O=C1OC(=O)c2ccc3c4c(ccc1c24)C(=O)OC3=O`, the survivor count under setting [3] is on record as 4 of 6.

On to `Cc1cccc(C(=O)OCCBr)c1`, for which the T/C (dose: 75.0 mg/kg/injection, schedule: Q01DX009 (ip), vehicle: saline sonified) is 127 % of control.

With `CCOC(=O)c1sc(SSc2sc(C(=O)OCC)c(C)c2[N+](=O)[O-])c([N+](=O)[O-])c1C`, the survivor count (dose: 200.0 mg/kg/injection, schedule: Q04DX003 (ip), vehicle: saline with Tween-80) is on record as 5 of 6 and the survivor count under setting [9] is on record as 6 of 6.

`COC(=O)c1cc(CC[N+](C)(C)Cc2ccccc2)c2ccccn12`: the survivor count is 0 of 6 (dose: 100.0 mg/kg/injection, schedule: Q04DX002 (ip), vehicle: saline); 0 of 6 (dose: 200.0 mg/kg/injection, schedule: Q04DX002 (ip), vehicle: saline); 0 of 6 (dose: 400.0 mg/kg/injection, schedule: Q04DX002 (ip), vehicle: saline).

As for `CC1CN1P(=O)(OCCC#N)N1CC1C` (centres undefined), the T/C runs as follows: under setting [8], 140 % of control; (dose: 100.0 mg/kg/injection, schedule: Q04DX003 (ip), vehicle: other) 136 % of control; under setting [10], 125 % of control.

In the case of `COc1ccccc1C(Nc1nncs1)Nc1nncs1`, the T/C under setting [11] is 126 % of control.

Take `CC(C)(C)C(=O)CC(=[OH+])c1ccccc1[PH+](c1ccccc1)c1ccccc1.CC(C)(C)C(=O)CC(=[OH+])c1ccccc1[PH+](c1ccccc1)c1ccccc1.O=C(O)c1ccccc1.[Cu].[Cu]`: the survivor count runs as follows: (dose: 100.0 mg/kg/injection, schedule: Q01DX001 (ip), vehicle: saline with Tween-80) 6 of 6; (dose: 200.0 mg/kg/injection, schedule: Q01DX001 (ip), vehicle: saline with Tween-80) 6 of 6; (dose: 400.0 mg/kg/injection, schedule: Q01DX001 (ip), vehicle: saline with Tween-80) 6 of 6.

On to `O=C1CC2COc3ccc(OCCN4CCCC4)cc3C2=NN1c1ccccc1` (centres undefined), for which, under setting [3], the survivor count is 3 of 6.

For `CN(C)N1C(=O)C(C(=O)Nc2cccc3ccccc23)SC1=S` (centres undefined), the survivor count reads like this: (dose: 6.25 mg/kg/injection, schedule: Q01DX005 (ip), vehicle: saline with Tween-80) 5 of 5; under setting [4], 5 of 5; under setting [5], 5 of 5; under setting [6], 5 of 5.

Consider `Oc1ccc2ncc(CBr)c(CBr)c2c1`, for which the survivor count reads like this: (dose: 60.0 mg/kg/injection, schedule: Q01DX005 (ip), vehicle: saline with Tween-80) 3 of 6; (dose: 120.0 mg/kg/injection, schedule: Q01DX005 (ip), vehicle: saline with Tween-80) 0 of 6; under setting [11], 0 of 6.

On to `OC(CCl)CN1CCN(CC(O)CCl)CC1` (centres undefined), for which, where the note is “dose: 12.5 mg/kg/injection, schedule: Q01DX005 (ip), vehicle: water”, the T/C is 142 % of control. Also, the survivor count (dose: 200.0 mg/kg/injection, schedule: Q01DX005 (ip), vehicle: water) is reported as 5 of 5.

On to `N=C(N)SCc1ccc(C(=O)Oc2ccc([N+](=O)[O-])cc2)cc1`, for which, under setting [9], the survivor count is 0 of 6.

As to `CC1=C(C#N)C(C)(C)C(C#N)=C(C)N1C`, the survivor count under setting [10] is listed as 0 of 6; the survivor count (dose: 200.0 mg/kg/injection, schedule: Q01DX009 (ip), vehicle: saline with Tween-80) is listed as 0 of 5; the survivor count (dose: 400.0 mg/kg/injection, schedule: Q01DX009 (ip), vehicle: other) was 0 of 6.

As for `Cc1ccc(N)c(S)c1`, the T/C under setting [1] is 130 % of control. Besides, the survivor count by setting is: under setting [2], 6 of 6; (dose: 200.0 mg/kg/injection, schedule: Q01DX009 (ip), vehicle: Klucel (hydroxypropylcellulose) (HPC)) 3 of 6.
